## Primary screen of a compound library

By UniProt entry, the sequences of proteins in these tests, tags left out.
UniProt E9BF75, entry or part of it: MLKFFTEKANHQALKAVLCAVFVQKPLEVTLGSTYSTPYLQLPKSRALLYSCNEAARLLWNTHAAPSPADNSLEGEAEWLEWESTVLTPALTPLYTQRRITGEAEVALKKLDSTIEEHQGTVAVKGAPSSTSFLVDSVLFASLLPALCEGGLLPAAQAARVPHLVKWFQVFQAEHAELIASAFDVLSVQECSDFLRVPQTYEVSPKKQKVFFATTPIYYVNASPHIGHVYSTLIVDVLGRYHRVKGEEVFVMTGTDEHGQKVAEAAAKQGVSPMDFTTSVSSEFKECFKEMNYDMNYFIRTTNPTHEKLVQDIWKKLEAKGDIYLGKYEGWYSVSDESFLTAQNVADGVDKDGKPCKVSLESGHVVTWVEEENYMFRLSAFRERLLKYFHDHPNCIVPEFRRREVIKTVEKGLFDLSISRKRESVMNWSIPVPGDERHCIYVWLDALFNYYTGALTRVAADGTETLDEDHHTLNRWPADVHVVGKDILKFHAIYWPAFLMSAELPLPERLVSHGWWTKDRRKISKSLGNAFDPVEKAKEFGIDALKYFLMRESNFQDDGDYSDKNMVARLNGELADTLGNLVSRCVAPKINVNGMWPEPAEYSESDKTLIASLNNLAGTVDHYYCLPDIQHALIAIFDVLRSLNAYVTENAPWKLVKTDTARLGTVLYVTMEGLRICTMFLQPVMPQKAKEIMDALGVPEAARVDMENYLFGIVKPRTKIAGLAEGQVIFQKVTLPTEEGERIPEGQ

Mtb heat-shock: 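Assay on Mycobacterium tuberculosis, filed only as a heat shock assay from Cornell; the read-out is not stated. The concentration is filed as 10 mM, unlikely as a test dose, so the dose is not known. The record gives no direction; compounds that gave an IC50 in retests scored well above the rest, so higher reads as stronger inhibition. Of about 69,000 compounds tested this way, about 930 (1.4%) reached 50% or more in at least one test.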
LdMetRS: 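Methionyl-tRNA synthetase (putative), Leishmania donovani (UniProt E9BF75). Primary screen of methionyl-tRNA synthetase; the read-out is not stated. The test concentration is not given. Values are per cent inhibition. Size under these conditions: about 68,000 compounds, about 24 of them at 50% or above in at least one test.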

Results are percentages, as filed. The record does not define 0% and 100%; most values in the screen are far below 50% and negative numbers occur (in some assays of this library far below -100). The compounds are a random part of those screened.

COCCCN1CCN([C@@H]2c3ccccc3C3(CCNCC3)[C@H]2O)CC1 read Mtb heat-shock: -25.07%; LdMetRS: 15.46%.
CC(C)NC(=O)C1CN(C(N)=O)Cc2ccnn2C1 (centres unmarked) read Mtb heat-shock: 1.847%; LdMetRS: 8.787%.
CCOCc1cccc(NC(=O)C2COCCO2)c1 (centres unmarked) read Mtb heat-shock: -7.225%; LdMetRS: 12.24%.
CCN(C)c1ccc(CNC(=O)c2cc(C(N)=O)cs2)cc1F read Mtb heat-shock: 4.487%; LdMetRS: 18.66%.
O=c1cnc2ccccc2n1CCCn1cccn1 read Mtb heat-shock: -7.168%; LdMetRS: -0.9174%.
O=C(NCCC(=O)N1CCCCCC1)c1c(O)cc(F)cc1F read Mtb heat-shock: 5.394%; LdMetRS: 15.28%.
COc1cccc(C(=O)Oc2cc(=O)n3cccc(C)c3n2)c1 read Mtb heat-shock: 0.2949%; LdMetRS: 14.58%.
CC(NC(=O)c1ccoc1)C(=O)N(C)Cc1cccc(C(F)(F)F)c1 (centres unmarked) read Mtb heat-shock: -32.14%; LdMetRS: 1.393%.
CN(C)c1ccnc(-c2ccnc3c2ccn3C)n1 read Mtb heat-shock: -13.47%; LdMetRS: 18.16%.
CS(=O)(=O)NCC1CCCCN1C(=O)c1csc(-c2ccsc2)n1 (centres unmarked) read Mtb heat-shock: 24.87%; LdMetRS: 9.926%.
O=C(Nc1ccccc1OC1CCOC1)c1cc[nH]n1 (centres unmarked) read Mtb heat-shock: -6.61%; LdMetRS: 2.957%.
CSc1c(CC(=O)O)n(C)c2ccccc12 read Mtb heat-shock: -36.99%; LdMetRS: 4.29%.
O=C(O)C(F)(F)F.[H][C@@]12C[C@H](C(=O)N3CCCCO3)CN(CC3CCOCC3)[C@]1([H])CCO2 read Mtb heat-shock: -2.02%.
[H][C@@]12CN(C(C)=O)C[C@]1([H])C(=O)N(C)C21CCN(C(=O)C(C)C)CC1 read Mtb heat-shock: -16.79%.
O=c1ccc2c(n1Cc1ccncc1)CCN(Cc1ccoc1)CC2 read LdMetRS: 15.34%.
COc1ccc(C[C@H]2CN(Cc3ccoc3)CC[C@@H]2OC)cc1.O=C(O)C(F)(F)F read Mtb heat-shock: 20.59%.
COc1ccc(C(=O)NCC(c2cccn2C)N2CCCC2)cc1OC (centres unmarked) read Mtb heat-shock: -23.35%; LdMetRS: 8.609%.
O=C(O)C(F)(F)F.[H][C@@]12CCCO[C@]1([H])[C@H](NS(C)(=O)=O)CN2C(=O)c1ccccn1 read Mtb heat-shock: -0.2198%.
CC(=O)c1cnc(NCCc2csc(-c3cnccn3)n2)nc1C read Mtb heat-shock: 11.23%; LdMetRS: 5.842%.
CCS(=O)(=O)N1CCC(c2nnc(CN3CCCCC3)n2C)CC1 read Mtb heat-shock: 14.41%.
CN1CCC(c2ncc3c(n2)CCN(C(=O)CC2C=CCC2)C3)CC1 (centres unmarked) read Mtb heat-shock: -11.34%; LdMetRS: 12.24%.
COc1cc(Cl)c(CN2CCC(C(N)=O)C2)cc1Cl (centres unmarked) read Mtb heat-shock: 2.02%; LdMetRS: 17.62%.
CCC(C)NC(=O)c1ccc(NC(=O)CCc2ccncc2)c(C)c1 (centres unmarked) read Mtb heat-shock: -14.94%; LdMetRS: 11.81%.

Some entries from above, unchanged:

Compound,Mtb heat-shock,LdMetRS
COc1cccc(C(=O)Oc2cc(=O)n3cccc(C)c3n2)c1,0.2949%,14.58%
CSc1c(CC(=O)O)n(C)c2ccccc12,-36.99%,4.29%

Measurements from “University of Dundee, Small-Polar-MMV Screening Library” (2021), ChEMBL document CHEMBL3988442.